{"source": "paper PMC6021032", "about": "“Antimycobacterial activity of nitrogen heterocycles derivatives: 7-(pyridine-4-yl)-indolizine derivatives. Part VII^8–12” (Journal of Enzyme Inhibition and Medicinal Chemistry, 2017)", "assay": "Cytotoxicity, THP-1 cell viability (CellTiter-Glo)", "conditions": "human"}
{"molecule": "CN[C@@H]1C[C@H]2O[C@@](C)([C@@H]1OC)n1c3ccccc3c3c4c(c5c6ccccc6n2c5c31)C(=O)NC4", "note": "[Staurosporine, reference compound]", "values": [{"measurement": "IC50 at 3 days", "result": 20, "unit": "nM"}]}
